Results are given in words; binding and its absence hold for the method and conditions named. A result given as binding can be weak or reduced; the word gives no strength.
Tests used:
[1] = molecular target: MBP-SWSAP1-His (human short) (human) (UniProt Q6NVH7); assay: pull-down; RAD51 and MBP-SWSAP1 each at 0.4 µM in buffer B (100 mM KCl, 40 mM Tris pH 7.5, 0.05% Triton X-100, 100 µg/mL acetylated BSA), 20 min at 37 °C; anti-MBP magnetic beads 1 h at 37°C; SDS–PAGE with Coomassie blue or silver staining; both purified
[2] = molecular target: pGBD-SWSAP1 short isoform (human) (UniProt Q6NVH7); assay: two-hybrid; S. cerevisiae PJ69-4A; pGAD-SWS1 with pGBD-SWSAP1 short or long; spotted on SC-LEU-TRP-HIS, SC-LEU-TRP-HIS + 3AT or SC-LEU-TRP-ADE, 2 days at 30°C

Sequences of proteins named here, by UniProt entry; tags and fusion partners are left off. A change or cut given only in a name is not applied to a line headed by its entry.
UniProt Q6NVH7: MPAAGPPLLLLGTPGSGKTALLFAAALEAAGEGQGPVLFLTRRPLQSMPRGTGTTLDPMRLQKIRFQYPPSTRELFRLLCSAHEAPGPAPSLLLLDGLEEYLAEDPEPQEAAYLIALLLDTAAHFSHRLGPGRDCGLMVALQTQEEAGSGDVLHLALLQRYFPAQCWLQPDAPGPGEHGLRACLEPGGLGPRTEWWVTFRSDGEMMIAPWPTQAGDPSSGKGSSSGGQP
UniProt Q06609: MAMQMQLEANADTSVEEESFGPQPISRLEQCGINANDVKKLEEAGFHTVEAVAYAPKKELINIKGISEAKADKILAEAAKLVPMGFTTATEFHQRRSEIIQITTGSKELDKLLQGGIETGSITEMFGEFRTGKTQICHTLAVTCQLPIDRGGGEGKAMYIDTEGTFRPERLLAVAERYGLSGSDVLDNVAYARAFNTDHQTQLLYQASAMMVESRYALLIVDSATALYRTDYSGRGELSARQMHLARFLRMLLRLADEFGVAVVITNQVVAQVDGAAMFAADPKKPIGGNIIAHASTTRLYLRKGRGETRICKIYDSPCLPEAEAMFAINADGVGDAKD

Untagged human RAD51 (from UniProt Q06609 1-339)
binding [1]: binds

B1: pGAD-SWS1 (protein, UniProt Q19AV6 1-140)
chain: MAVVLPAVVEELLSEMAAAVQESARIPDEYLLSLKFLFGSSATQALDLVDRQSITLISSPSGRRVYQVLGSSSKTYTCLASCHYCSCPAFAFSVLRKSDSILCKHLLAVYLSQVMRTCQQLSVSDKQLTDILLMEKKQEA
binding [2]: binds

— PMC8275761
